This test deals with BDF1 mice, P388 leukemia ip, median survival T/C. The test can be described thus: NCI In Vivo Anticancer Drug Screen. Data for tumor model P388 Leukemia (intraperitoneal) in B6D2F1 (BDF1) mice. The following applies: T/C endpoint: median survival time, higher T/C = longer survival. A digest of the protocol:
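Read-out is survival of treated animals expressed relative to the vehicle group, as a T/C ratio.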

The mark [1] stands for this setting: dose: 400.0 mg/kg/injection, schedule: Q01DX009 (ip), vehicle: Klucel (hydroxypropylcellulose) (HPC).
[2] abbreviates: dose: 400.0 mg/kg/injection, schedule: Q04DX003 (ip), vehicle: Klucel (hydroxypropylcellulose) (HPC).
The mark [3] stands for this setting: dose: 50.0 mg/kg/injection, schedule: Q01DX009 (ip), vehicle: saline.
Setting [4] is: dose: 200.0 mg/kg/injection, schedule: Q01DX009 (ip), vehicle: saline.
Where [5] appears, read: dose: 400.0 mg/kg/injection, schedule: Q04DX003 (ip), vehicle: saline.
Where [6] appears, read: dose: 200.0 mg/kg/injection, schedule: Q04DX003 (ip), vehicle: saline.
Where [7] appears, read: dose: 200.0 mg/kg/injection, schedule: Q01DX009 (ip), vehicle: saline with Tween-80.
The mark [8] stands for this setting: dose: 100.0 mg/kg/injection, schedule: Q04DX003 (ip), vehicle: saline.

SMILES strings stand for the structures. The list shows only some results of the screen, not a fair sample: it is rich in T/C values a quarter to a half above the control, in often repeated tests (any T/C) and in doses without a T/C. Further doses and runs are listed elsewhere. T/C gives the treated animals as a percentage of the vehicle group. Some entries give survivors of the animals treated and no T/C: the source files T/C as zero there, which appears to mark a toxic dose or a test without result, not a measured value. Some doses without a T/C left all or most animals alive at the check, yet need not have been tolerated: the source hardly ever lists a survival T/C far under the control, and the zero likely stands for such cases as well. Counts of survivors are from the toxicity check (mostly the fifth day) where no day follows; animals may have died later. Schedule codes are those of the source, read here as Q, the interval in days (D) or hours (H), X, the number of doses. For survival time, this PubChem deposit counts one and a half times the control or more as active, and values a quarter to a half above the control carry no call in these data; other NCI protocols may use other cut-offs. Some entries were tested several times; the values are given in rising order.

For 25 compounds, survivor count and T/C results are on record in PubChem BioAssay AID328 (DTP/NCI, 2004).

In the case of `COc1cc(NS(C)(=O)=O)ccc1N`, the survivor count was 4 of 6 (dose: 200.0 mg/kg/injection, schedule: Q04DX003 (ip), vehicle: Klucel (hydroxypropylcellulose) (HPC)); 0 of 6 under setting [1]; 0 of 6 under setting [2].
Consider `CCN(CC)CC1CO1` (stereo not drawn), for which the survivor count by setting is: (dose: 25.0 mg/kg/injection, schedule: Q01DX009 (ip), vehicle: saline) 3 of 6; under setting [3], 0 of 6.
For `c1ccc(Cn2ccnc2C2OCCO2)cc1`, the survivor count is, setting by setting: (dose: 25.0 mg/kg/injection, schedule: Q01DX009 (ip), vehicle: water) 6 of 6; (dose: 200.0 mg/kg/injection, schedule: Q04DX003 (ip), vehicle: water) 2 of 6.
Take `Cc1cc(=O)n(Cc2ccccc2)c(O)c1C`: the survivor count under setting [2] was 5 of 6.
Take `Cc1cc2cc3c(=O)[nH]c(=O)nc-3n(CC(O)C(O)C(O)COP(=O)(O)O)c2cc1C` (stereo not drawn): the survivor count was 6 of 6 (dose: 166.0 mg/kg/injection, schedule: Q01DX009 (ip), vehicle: saline); 5 of 6 under setting [4]; 4 of 6 (dose: 400.0 mg/kg/injection, schedule: Q01DX009 (ip), vehicle: saline).
For `CCc1cccc2c(NCCCCCCNc3c4ccccc4nc4c(CC)cccc34)c3ccccc3nc12`, the T/C was 128 % of control (dose: 1.25 mg/kg/injection, schedule: Q01DX009 (ip), vehicle: lactic acid) and 143 % of control (dose: 2.5 mg/kg/injection, schedule: Q01DX009 (ip), vehicle: lactic acid). The survivor count reads like this: (dose: 10.0 mg/kg/injection, schedule: Q01DX009 (ip), vehicle: lactic acid) 6 of 6; (dose: 20.0 mg/kg/injection, schedule: Q01DX009 (ip), vehicle: lactic acid) 4 of 6.
Turning to `O=C(Oc1ccc([N+](=O)[O-])cc1)c1ccc(C[n+]2ccccc2)cc1`, the survivor count under setting [5] is listed as 1 of 6.
Consider `C/C(=N/N(C)C)c1nc(N)nc(N)c1-c1ccc(Cl)cc1`, for which the survivor count is recorded as 0 of 6 (dose: 200.0 mg/kg/injection, schedule: Q01DX001 (ip), vehicle: saline with Tween-80) and 0 of 6 (dose: 400.0 mg/kg/injection, schedule: Q01DX001 (ip), vehicle: saline with Tween-80).
As to `CCCCNP(=O)(N1CC1CC)N1CC1CC` (stereo not drawn), the T/C under setting [6] was 131 % of control. Further, the survivor count under setting [5] is 3 of 6.
Take `CCOC(=O)c1cnc(SCc2ccccc2Cl)nc1N1CC1`: the T/C was 129 % of control (dose: 21.25 mg/kg/injection, schedule: Q01DX009 (ip), vehicle: Klucel (hydroxypropylcellulose) (HPC)); 128 and 145 % of control (dose: 42.5 mg/kg/injection, schedule: Q01DX009 (ip), vehicle: Klucel (hydroxypropylcellulose) (HPC)).
For `O=C=Nc1ccc(CCc2ccc(N=C=O)cc2)cc1`, under setting [7], the T/C is 130 % of control.
As to `NC(=S)N=Nc1c(O)[nH]c2ccccc12`, the survivor count under setting [1] is given as 5 of 6.
With `NC(=S)c1nn(C2OC(CO)C(O)C2O)c2ncnc(N)c12` (stereo not drawn), the T/C was 125 % of control (dose: 1.5 mg/kg/injection, schedule: Q01DX009 (ip), vehicle: saline) and 131 % of control (dose: 3.0 mg/kg/injection, schedule: Q01DX009 (ip), vehicle: saline). For the same compound, the survivor count by setting is: under setting [8], 0 of 6; under setting [6], 0 of 6; under setting [5], 0 of 6.
`CCN1CC1` (tested in a mixture with another compound): the survivor count (dose: 0.14 mg/kg/injection, schedule: Q01DX009 (ip), vehicle: saline) was 6 of 6; the survivor count (dose: 0.29 mg/kg/injection, schedule: Q01DX009 (ip), vehicle: saline) is 6 of 6; the survivor count (dose: 4.68 mg/kg/injection, schedule: Q01DX009 (ip), vehicle: saline) is 0 of 6.
Take `[N-]=[N+]=CC(=O)NCC(=O)NN`: the T/C runs as follows: (dose: 100.0 mg/kg/injection, schedule: Q01DX010 (ip), vehicle: saline) 127 % of control; (dose: 100.0 mg/kg/injection, schedule: Q01DX010 (ip), vehicle: water) 130 % of control; (dose: 200.0 mg/kg/injection, schedule: Q01DX010 (ip), vehicle: saline) 140 % of control. Further, for the setting “dose: 800.0 mg/kg/injection, schedule: Q01DX010 (ip), vehicle: saline”, the survivor count is listed as 6 of 6.
On to `CC[N+](C)(C)CC`, for which the survivor count (dose: 200.0 mg/kg/injection, schedule: Q01DX001 (ip), vehicle: saline) is on record as 0 of 6 and the survivor count (dose: 400.0 mg/kg/injection, schedule: Q01DX001 (ip), vehicle: saline) is recorded as 0 of 6.
Consider `c1ccc(COC2CN3CCC2CC3)cc1` (stereo not drawn), for which the survivor count (dose: 100.0 mg/kg/injection, schedule: Q04DX003 (ip), vehicle: saline with Tween-80) is recorded as 3 of 6.
Regarding `Cn1c(C(Cl)Cl)nc2ccccc2c1=O`, the survivor count was 3 of 6 (dose: 255.0 mg/kg/injection, schedule: Q01DX009 (ip), vehicle: Klucel (hydroxypropylcellulose) (HPC)) and 4 of 6 (dose: 385.0 mg/kg/injection, schedule: Q01DX009 (ip), vehicle: Klucel (hydroxypropylcellulose) (HPC)).
As to `CCC1=CC(C(O)CC(C)C)C(C)(Cc2ccc(CC)cn2)NC1c1ccccc1` (stereo not drawn), the survivor count (dose: 100.0 mg/kg/injection, schedule: Q04DX002 (ip), vehicle: saline with Tween-80) is listed as 3 of 6.
Turning to `[O-][Cl+3]([O-])([O-])O.[O-][n+]1c2ccccc2nc2ccccc21.[Zn+2]`, the T/C (dose: 100.0 mg/kg/injection, schedule: Q01DX009 (ip), vehicle: saline with Tween-80) was 129 % of control. For the same compound, under setting [7], the survivor count is listed as 1 of 6.
For the compound `OC1OC(COC(c2ccccc2)(c2ccccc2)c2ccccc2)C(O)C(O)C1O` (stereo not drawn), the T/C under setting [3] is 132 % of control. Further, the survivor count reads like this: (dose: 160.0 mg/kg/injection, schedule: Q01DX009 (ip), vehicle: saline) 2 of 6; under setting [4], 5 of 6; under setting [5], 2 of 6.
Consider `CSc1nc(N)nc2c1ncn2C1CC(O)C(CO)O1` (stereo not drawn), for which the survivor count under setting [4] is given as 6 of 6.
As to `Nc1ncnc2c1ncn2C1OC(COP(=O)(O)O)C(O)C1O` (stereo not drawn), the T/C by setting is: (dose: 18.8 mg/kg/injection, schedule: Q03HX024 (ip), vehicle: saline) 127 % of control; (dose: 37.5 mg/kg/injection, schedule: Q03HX016 (ip), vehicle: saline) 131 % of control; (dose: 37.5 mg/kg/injection, schedule: Q03HX024 (ip), vehicle: saline) 131 % of control; (dose: 75.0 mg/kg/injection, schedule: Q03HX016 (ip), vehicle: saline) 145 % of control; (dose: 75.0 mg/kg/injection, schedule: Q03HX024 (ip), vehicle: saline) 148 % of control.
Take `Cc1c2oc3c(C)ccc(C(=O)NCCCc4ccccc4)c3nc-2c(C(=O)NCCCc2ccccc2)c(N)c1=O`: the survivor count (dose: 400.0 mg/kg/injection, schedule: Q04DX002 (ip), vehicle: DMSO) is listed as 4 of 6.
For `O=C(O)/C=C\c1c[nH]c2nccnc12`, the survivor count is, setting by setting: (dose: 75.0 mg/kg/injection, schedule: Q01DX009 (ip), vehicle: saline) 3 of 6; under setting [8], 4 of 6; under setting [6], 0 of 6.
